Values from PubChem BioAssay AID652259 (Drosophila RNAi Screening Center, 2013).
The screen tested about 22,000 reagents; shown is a random part of those with a known target gene and a result. Over the whole deposit, 233 (1.1%) are marked active. 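Light values are raw, unnormalised plate reads; the ratio scores behind the reporter calls were not deposited.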 A plus sign joins genes that one reagent is predicted to hit. The record does not give: the amount of reagent, the time to read-out, the dose of the treatment.

Purpose: 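Identify new Wingless signalling regulators in fly cells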 (primary screen)
Cells: Drosophila clone 8 imaginal disc epithelial cells
Reagent: long dsRNA against Drosophila genes
Treatment: pathway stimulated by co-transfected Wingless expression plasmid
Measurement: 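Firefly luciferase from a tcf-site Wingless reporter, measured alongside co-transfected Renilla luciferase that tracks transfection; pathway stimulated by a Wingless plasmid; the firefly-to-Renilla ratio is not deposited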
Scale: firefly reporter light: higher = more Wg reporter light, before normalisation; Renilla control light: higher = more transfected or surviving cells
Hit rule: 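Strong candidates differ from their plate mean by at least two out of four per-plate statistical tests; weak candidates meet just one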
Meaning of the calls: active = candidate regulator (raises or lowers reporter); inactive = not a candidate

| gene | PubChem SID | reporter change call, replicate 1 | firefly reporter light, replicate 1 | firefly reporter light, replicate 2 | Renilla control light, replicate 1 | Renilla control light, replicate 2 | outcome |
| --- | --- | --- | --- | --- | --- | --- | --- |
| CG31288 (GeneID 318664) | SID104194459 | – | 19844 | – | 15875 | – | inactive |
| HDAC6 (GeneID 32461) | SID104200044 | – | 4002 | 6486 | 1434 | 3497 | inactive |
| CG18404 (GeneID 43603) | SID104195115 | – | 8434 | – | 3365 | – | inactive |
| porin (GeneID 34500) | SID104183386 | – | 12913 | – | 3785 | – | inactive |
| P5cr (GeneID 42284) | SID104196574 | – | 15875 | – | 3324 | – | inactive |
| CG13280 (GeneID 35015) | SID104182045 | – | 2224 | 6545 | 994 | 2329 | inactive |
| CG3860 (GeneID 37825) | SID104184217 | – | 9269 | – | 3546 | – | inactive |
| coil (GeneID 35785) | SID104187034 | – | 4566 | – | 874 | – | inactive |
| CG9920 (GeneID 41712) | SID104196370 | – | 18728 | – | 3888 | – | inactive |
| CG14641 (GeneID 40529) | SID104192019 | – | 7041 | – | 2859 | – | inactive |
| CG14325 (GeneID 42123) | SID104194596 | – | 12486 | – | 2019 | – | inactive |
| CG3420 (GeneID 35585) | SID104184787 | – | 3655 | 7453 | 679 | 3298 | inactive |
| nompC (GeneID 33768) | SID104183373 | – | 1952 | 6169 | 960 | 1040 | inactive |
| mh (GeneID 32480) | SID104199960 | – | 16358 | – | 6791 | – | inactive |
| Cubn2 (GeneID 39334) | SID104190353 | – | 9185 | – | 3549 | – | inactive |
| Cubn2 (GeneID 39334) | SID104201625 | – | 4.64e5 | 4.81e5 | 2.10e5 | 1.96e5 | inactive |
| CG14380 (GeneID 41621) | SID104194632 | – | 15120 | – | 1904 | – | inactive |
| CG31231 (GeneID 318638) | SID104193100 | – | 3104 | – | 1356 | – | inactive |
| alpha-Est4aPsi (GeneID 3772290) | SID104192265 | – | 2048 | – | 517 | – | inactive |
| CG18508 (GeneID 59253) | SID104197947 | – | 28235 | – | 12688 | – | inactive |
| nkd (GeneID 44843) | SID104191168 | Wg reporter activity raised | 82416 | – | 8347 | – | active |
| CG10799 (GeneID 36472) | SID104185794 | – | 3754 | – | 1985 | – | inactive |
| Ulp1 (GeneID 32910) | SID104199131 | – | 3600 | 13591 | 826 | 3811 | inactive |
| CG17883 (GeneID 3355139) | SID104187630 | – | 3936 | – | 2224 | – | inactive |
| Uqcc1 + CG9948 | SID104189482 | – | 2181 | 7749 | 1178 | 3491 | inactive |
| CG9018 (GeneID 38283) | SID104188410 | – | 11217 | – | 2565 | – | inactive |
| Tat (GeneID 32381) | SID104199394 | – | 21622 | – | 7908 | – | inactive |
| l(1)G0196 (GeneID 33137) | SID104200421 | – | 25729 | – | 1179 | – | inactive |
| Grip91 (GeneID 48481) | SID104200041 | – | 1610 | 9808 | 716 | 2041 | inactive |
| MED19 (GeneID 39987) | SID104190308 | – | 4721 | – | 1205 | – | inactive |
| CG2200 (GeneID 32258) | SID104199632 | – | 19144 | – | 9157 | – | inactive |
| Arf4 (GeneID 43823) | SID104196987 | – | 12320 | – | 10672 | – | inactive |
| CG3552 (GeneID 39097) | SID104190162 | – | 7322 | – | 2915 | – | inactive |
| PIG-N (GeneID 36049) | SID104186629 | – | 2328 | 4437 | 1139 | 2228 | inactive |
| CG14431 (GeneID 31639) | SID104197717 | – | 17437 | – | 9440 | – | inactive |
| CG14431 (GeneID 31639) | SID104197718 | – | 27234 | – | 6442 | – | inactive |
| eEF1alpha1 (GeneID 36271) | SID104187213 | – | 5480 | – | 2024 | – | inactive |
| CG32679 (GeneID 318150) | SID104197436 | – | 3159 | – | 986 | – | inactive |

Reformatted: entries from further up
gene	PubChem SID	reporter change call, replicate 1	firefly reporter light, replicate 1	firefly reporter light, replicate 2	Renilla control light, replicate 1	Renilla control light, replicate 2	outcome
mh (GeneID 32480)	SID104199960		16358		6791		inactive
Cubn2 (GeneID 39334)	SID104190353		9185		3549		inactive
Cubn2 (GeneID 39334)	SID104201625		4.64e5	4.81e5	2.10e5	1.96e5	inactive
CG14380 (GeneID 41621)	SID104194632		15120		1904		inactive
CG31231 (GeneID 318638)	SID104193100		3104		1356		inactive
alpha-Est4aPsi (GeneID 3772290)	SID104192265		2048		517		inactive
CG18508 (GeneID 59253)	SID104197947		28235		12688		inactive
nkd (GeneID 44843)	SID104191168	Wg reporter activity raised	82416		8347		active
CG10799 (GeneID 36472)	SID104185794		3754		1985		inactive

Continued.
| gene | PubChem SID | reporter change call, replicate 1 | firefly reporter light, replicate 1 | firefly reporter light, replicate 2 | Renilla control light, replicate 1 | Renilla control light, replicate 2 | outcome |
| --- | --- | --- | --- | --- | --- | --- | --- |
| CG14420 (GeneID 31284) | SID104197709 | – | 20829 | – | 9913 | – | inactive |
| Ndf (GeneID 192507) | SID104182567 | – | 7832 | – | 2150 | – | inactive |
| pic (GeneID 41611) | SID104196431 | – | 6093 | – | 2361 | – | inactive |
| Sk1 (GeneID 32089) | SID104199566 | – | 18256 | – | 9108 | – | inactive |
| RNaseP:RNA (GeneID 3772418) | SID104202324 | – | 5.09e5 | 6.45e5 | 2.63e5 | 2.63e5 | inactive |
| Patr-1 (GeneID 42058) | SID104193951 | – | 5014 | 7472 | 987 | 1252 | inactive |
| Fdh (GeneID 41311) | SID104196462 | – | 12598 | – | 3269 | – | inactive |
| CG4763 (GeneID 37771) | SID104183801 | – | 18698 | – | 11224 | – | inactive |
| CG4763 (GeneID 37771) | SID104184279 | – | 3155 | 6152 | 842 | 2187 | inactive |
| CG15024 (GeneID 50172) | SID104188270 | – | 1847 | 12498 | 1376 | 4068 | inactive |
| CG9044 (GeneID 33825) | SID104182922 | – | 5187 | – | 2976 | – | inactive |
| Rcc1 (GeneID 38669) | SID104189476 | – | 8688 | – | 3050 | – | inactive |
| Naxe (GeneID 31944) | SID104198043 | – | 15452 | – | 8075 | – | inactive |
| CG12744 (GeneID 36024) | SID104185956 | – | 6496 | – | 1463 | – | inactive |
| CHOp24 (GeneID 31382) | SID104198102 | – | 3478 | 9082 | 1594 | 1962 | inactive |
| CG10465 (GeneID 35488) | SID104184640 | – | 2093 | 3346 | 557 | 1739 | inactive |
| Prx3 (GeneID 42109) | SID104195675 | – | 3593 | 8106 | 1362 | 2493 | inactive |
| Cyp313a2 (GeneID 41487) | SID104196417 | – | 15065 | – | 3885 | – | inactive |
| CG32647 (GeneID 326226) | SID104199482 | – | 14620 | – | 8500 | – | inactive |
| CG32647 (GeneID 326226) | SID104199670 | – | 12180 | – | 7189 | – | inactive |
| CG9389 (GeneID 40347) | SID104191649 | – | 3837 | – | 1629 | – | inactive |
| Irp-1B (GeneID 41269) | SID104196512 | – | 13872 | – | 2472 | – | inactive |
| Pp4-19C (GeneID 45031) | SID104200351 | – | 16550 | – | 8508 | – | inactive |
| Pp4-19C (GeneID 45031) | SID104201043 | – | 33924 | – | 9158 | – | inactive |
| JhI-26 (GeneID 36819) | SID104186643 | – | 10571 | – | 3552 | – | inactive |
| CG8312 (GeneID 41163) | SID104196198 | – | 9334 | – | 2203 | – | inactive |
| CG11581 (GeneID 32362) | SID104199199 | – | 21881 | – | 10263 | – | inactive |
| mRRF1 (GeneID 39067) | SID104190213 | – | 3110 | – | 1571 | – | inactive |
| Nf-YC (GeneID 31622) | SID104198064 | – | 24888 | – | 1975 | – | inactive |
| Adgf-D (GeneID 41679) | SID104196313 | – | 12640 | – | 2569 | – | inactive |
| dpa (GeneID 35679) | SID104187396 | – | 2313 | 5622 | 777 | 2071 | inactive |
| CG31156 (GeneID 42669) | SID104195545 | – | 3098 | 6101 | 1062 | 1781 | inactive |
| CG31156 (GeneID 42669) | SID104195547 | – | 12754 | – | 7408 | – | inactive |
| Deaf1 (GeneID 40164) | SID104190935 | – | 24695 | – | 7264 | – | inactive |
| Deaf1 (GeneID 40164) | SID104202145 | – | 6.19e5 | 7.25e5 | 1.54e5 | 1.70e5 | inactive |
| CG12672 (GeneID 32781) | SID104199274 | – | 19946 | – | 12188 | – | inactive |
| Fdx2 (GeneID 38530) | SID104188098 | – | 6836 | – | 3639 | – | inactive |
| CG7800 (GeneID 40963) | SID104196107 | – | 18992 | – | 4624 | – | inactive |
| Pex3 (GeneID 39652) | SID104190523 | – | 4388 | – | 1335 | – | inactive |
| CG5877 (GeneID 32455) | SID104199755 | – | 2913 | 9752 | 1160 | 3734 | inactive |
| RabX1 (GeneID 44172) | SID104184470 | – | 2647 | 8833 | 653 | 2580 | inactive |
| T3dh + pgc | SID104184451 | – | 9376 | – | 2669 | – | inactive |
| loj (GeneID 38698) | SID104189583 | – | 9291 | – | 3770 | – | inactive |
| ND-51 (GeneID 33852) | SID104182937 | – | 7232 | – | 3016 | – | inactive |
| CG14591 (GeneID 35531) | SID104184660 | – | 3973 | 7584 | 1040 | 2859 | inactive |
| CG5071 (GeneID 43090) | SID104195502 | – | 23336 | – | 24448 | – | inactive |
| CG5071 (GeneID 43090) | SID104201995 | – | 8.07e5 | 8.32e5 | 3.91e5 | 2.44e5 | inactive |
| CG16734 (GeneID 41100) | SID104194935 | – | 15098 | – | 3922 | – | inactive |
| Drsl4 (GeneID 317954) | SID104187826 | – | 2264 | – | 1177 | – | inactive |
| dpr9 (GeneID 2768670) | SID104194326 | – | 8226 | – | 3187 | – | inactive |
| dpr9 (GeneID 2768670) | SID104194777 | – | 17562 | – | 1908 | – | inactive |
| dpr9 (GeneID 2768670) | SID104194778 | – | 19008 | – | 1610 | – | inactive |
| Pgant4 (GeneID 261610) | SID104180509 | – | 3447 | 7014 | 1228 | 2656 | inactive |
| SP1029 (GeneID 53473) | SID104196640 | – | 7105 | – | 2555 | – | inactive |
| CheB74a (GeneID 3772073) | SID104189295 | – | 2744 | – | 996 | – | inactive |
